The list shows a part of the results.

Sequences of proteins named here, by UniProt entry; tags and fusion partners are left off. A change or cut given only in a name is not applied to a line headed by its entry.
UniProt O43837: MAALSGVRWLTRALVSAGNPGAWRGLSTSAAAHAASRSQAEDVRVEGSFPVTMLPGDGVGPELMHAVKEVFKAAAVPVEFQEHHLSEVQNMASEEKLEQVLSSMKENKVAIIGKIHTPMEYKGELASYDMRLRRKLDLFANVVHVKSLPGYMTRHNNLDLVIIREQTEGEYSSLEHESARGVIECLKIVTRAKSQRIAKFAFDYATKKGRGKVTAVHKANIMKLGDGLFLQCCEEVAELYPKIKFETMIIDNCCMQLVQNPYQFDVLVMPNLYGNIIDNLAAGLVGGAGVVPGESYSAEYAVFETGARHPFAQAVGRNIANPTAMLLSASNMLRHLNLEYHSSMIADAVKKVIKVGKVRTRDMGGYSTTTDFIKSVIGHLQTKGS
UniProt A1L0T0: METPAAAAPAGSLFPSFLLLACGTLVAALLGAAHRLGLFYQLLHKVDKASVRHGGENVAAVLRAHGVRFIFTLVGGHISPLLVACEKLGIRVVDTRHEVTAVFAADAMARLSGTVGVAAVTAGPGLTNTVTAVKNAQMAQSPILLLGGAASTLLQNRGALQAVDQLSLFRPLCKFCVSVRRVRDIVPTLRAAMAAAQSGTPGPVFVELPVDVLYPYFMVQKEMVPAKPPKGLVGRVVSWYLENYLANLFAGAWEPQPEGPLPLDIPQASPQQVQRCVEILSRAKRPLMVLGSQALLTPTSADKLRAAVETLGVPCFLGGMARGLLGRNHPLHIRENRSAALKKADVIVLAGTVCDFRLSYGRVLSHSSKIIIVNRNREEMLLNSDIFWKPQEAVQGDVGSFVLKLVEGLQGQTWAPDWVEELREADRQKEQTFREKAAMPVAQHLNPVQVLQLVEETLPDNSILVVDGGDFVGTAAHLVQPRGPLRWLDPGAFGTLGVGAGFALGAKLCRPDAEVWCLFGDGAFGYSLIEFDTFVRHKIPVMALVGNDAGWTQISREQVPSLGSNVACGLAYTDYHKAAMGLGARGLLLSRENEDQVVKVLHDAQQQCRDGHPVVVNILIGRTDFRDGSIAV
UniProt Q12905: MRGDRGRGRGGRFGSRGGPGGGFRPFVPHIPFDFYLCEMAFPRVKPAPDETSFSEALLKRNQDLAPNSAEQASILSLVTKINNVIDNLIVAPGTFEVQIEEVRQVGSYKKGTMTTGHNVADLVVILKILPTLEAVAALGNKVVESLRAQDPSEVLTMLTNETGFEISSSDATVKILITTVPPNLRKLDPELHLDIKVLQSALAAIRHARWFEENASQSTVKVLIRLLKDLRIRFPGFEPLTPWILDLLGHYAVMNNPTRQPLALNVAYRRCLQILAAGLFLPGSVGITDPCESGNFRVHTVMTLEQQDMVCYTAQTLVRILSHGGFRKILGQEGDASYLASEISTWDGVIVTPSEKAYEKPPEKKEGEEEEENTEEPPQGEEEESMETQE
UniProt P29218: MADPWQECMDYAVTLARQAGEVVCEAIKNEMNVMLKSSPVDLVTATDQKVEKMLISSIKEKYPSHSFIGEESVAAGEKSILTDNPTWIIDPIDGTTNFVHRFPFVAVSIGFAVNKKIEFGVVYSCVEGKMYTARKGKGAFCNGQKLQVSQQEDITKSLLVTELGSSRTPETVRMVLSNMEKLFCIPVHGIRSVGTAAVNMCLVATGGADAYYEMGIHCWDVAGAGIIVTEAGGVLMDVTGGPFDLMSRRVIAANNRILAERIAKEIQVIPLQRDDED
UniProt O75874, whole entry, looked up: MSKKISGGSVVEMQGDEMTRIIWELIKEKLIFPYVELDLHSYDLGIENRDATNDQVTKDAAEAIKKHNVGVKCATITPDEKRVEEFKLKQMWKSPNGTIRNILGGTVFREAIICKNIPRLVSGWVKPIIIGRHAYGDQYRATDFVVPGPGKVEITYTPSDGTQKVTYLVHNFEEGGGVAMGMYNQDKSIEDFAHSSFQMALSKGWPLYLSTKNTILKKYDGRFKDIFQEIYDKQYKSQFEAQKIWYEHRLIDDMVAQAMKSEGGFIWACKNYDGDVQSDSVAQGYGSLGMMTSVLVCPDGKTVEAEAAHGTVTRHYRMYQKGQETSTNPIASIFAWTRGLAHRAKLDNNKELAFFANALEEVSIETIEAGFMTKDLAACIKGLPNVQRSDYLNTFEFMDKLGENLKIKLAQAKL
UniProt P11142, whole entry, looked up: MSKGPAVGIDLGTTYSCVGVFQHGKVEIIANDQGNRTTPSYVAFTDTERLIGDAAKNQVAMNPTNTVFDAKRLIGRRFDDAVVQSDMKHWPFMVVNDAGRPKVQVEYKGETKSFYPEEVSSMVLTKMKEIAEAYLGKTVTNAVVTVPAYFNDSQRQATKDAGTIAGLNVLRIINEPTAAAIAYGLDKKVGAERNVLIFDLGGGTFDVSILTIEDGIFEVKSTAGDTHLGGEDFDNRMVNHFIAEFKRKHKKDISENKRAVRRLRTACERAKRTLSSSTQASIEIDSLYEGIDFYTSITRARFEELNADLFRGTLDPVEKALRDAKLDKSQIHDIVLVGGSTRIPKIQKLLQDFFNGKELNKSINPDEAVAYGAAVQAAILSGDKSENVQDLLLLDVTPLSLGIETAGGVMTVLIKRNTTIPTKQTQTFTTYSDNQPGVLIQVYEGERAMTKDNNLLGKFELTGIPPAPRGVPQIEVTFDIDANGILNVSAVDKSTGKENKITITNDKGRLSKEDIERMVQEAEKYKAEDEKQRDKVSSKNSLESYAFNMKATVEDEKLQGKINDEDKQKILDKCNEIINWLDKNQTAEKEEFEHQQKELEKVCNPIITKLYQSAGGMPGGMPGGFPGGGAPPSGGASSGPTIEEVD
UniProt Q08334: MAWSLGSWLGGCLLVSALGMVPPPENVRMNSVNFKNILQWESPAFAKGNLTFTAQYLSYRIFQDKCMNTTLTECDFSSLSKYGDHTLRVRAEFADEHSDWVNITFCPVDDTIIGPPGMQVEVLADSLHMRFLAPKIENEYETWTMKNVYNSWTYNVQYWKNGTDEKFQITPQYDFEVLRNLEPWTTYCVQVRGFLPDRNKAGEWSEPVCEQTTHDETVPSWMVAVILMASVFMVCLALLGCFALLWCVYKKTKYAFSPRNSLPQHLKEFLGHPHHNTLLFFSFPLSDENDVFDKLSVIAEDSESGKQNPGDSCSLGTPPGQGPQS
UniProt P78318: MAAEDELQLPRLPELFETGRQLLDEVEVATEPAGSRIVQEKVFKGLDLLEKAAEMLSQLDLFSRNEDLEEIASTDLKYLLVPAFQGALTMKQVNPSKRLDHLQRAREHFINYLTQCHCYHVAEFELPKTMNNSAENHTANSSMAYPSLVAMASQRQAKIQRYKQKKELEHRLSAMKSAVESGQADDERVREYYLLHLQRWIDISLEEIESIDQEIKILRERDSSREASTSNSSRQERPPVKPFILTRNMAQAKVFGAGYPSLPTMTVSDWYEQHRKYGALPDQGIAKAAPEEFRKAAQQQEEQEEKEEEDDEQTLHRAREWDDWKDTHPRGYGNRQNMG
UniProt Q9NX55: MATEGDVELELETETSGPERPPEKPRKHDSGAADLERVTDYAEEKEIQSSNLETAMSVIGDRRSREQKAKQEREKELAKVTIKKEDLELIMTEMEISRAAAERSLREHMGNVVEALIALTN
UniProt Q96LB3: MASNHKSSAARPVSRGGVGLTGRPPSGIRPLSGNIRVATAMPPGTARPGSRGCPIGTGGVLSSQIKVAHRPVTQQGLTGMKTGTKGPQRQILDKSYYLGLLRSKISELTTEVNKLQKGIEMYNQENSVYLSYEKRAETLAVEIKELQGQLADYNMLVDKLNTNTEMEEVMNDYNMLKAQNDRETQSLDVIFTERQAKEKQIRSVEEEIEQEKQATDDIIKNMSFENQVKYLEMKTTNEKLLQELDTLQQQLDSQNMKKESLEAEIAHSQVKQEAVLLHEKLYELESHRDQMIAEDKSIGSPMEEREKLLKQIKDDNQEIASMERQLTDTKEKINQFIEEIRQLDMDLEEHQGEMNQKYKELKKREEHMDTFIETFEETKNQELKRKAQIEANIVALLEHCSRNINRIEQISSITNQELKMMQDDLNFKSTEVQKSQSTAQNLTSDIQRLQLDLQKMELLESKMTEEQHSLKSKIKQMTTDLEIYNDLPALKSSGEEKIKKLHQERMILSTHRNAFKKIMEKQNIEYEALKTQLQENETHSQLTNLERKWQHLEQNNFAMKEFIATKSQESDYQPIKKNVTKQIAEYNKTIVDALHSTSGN
UniProt Q9Y4L1: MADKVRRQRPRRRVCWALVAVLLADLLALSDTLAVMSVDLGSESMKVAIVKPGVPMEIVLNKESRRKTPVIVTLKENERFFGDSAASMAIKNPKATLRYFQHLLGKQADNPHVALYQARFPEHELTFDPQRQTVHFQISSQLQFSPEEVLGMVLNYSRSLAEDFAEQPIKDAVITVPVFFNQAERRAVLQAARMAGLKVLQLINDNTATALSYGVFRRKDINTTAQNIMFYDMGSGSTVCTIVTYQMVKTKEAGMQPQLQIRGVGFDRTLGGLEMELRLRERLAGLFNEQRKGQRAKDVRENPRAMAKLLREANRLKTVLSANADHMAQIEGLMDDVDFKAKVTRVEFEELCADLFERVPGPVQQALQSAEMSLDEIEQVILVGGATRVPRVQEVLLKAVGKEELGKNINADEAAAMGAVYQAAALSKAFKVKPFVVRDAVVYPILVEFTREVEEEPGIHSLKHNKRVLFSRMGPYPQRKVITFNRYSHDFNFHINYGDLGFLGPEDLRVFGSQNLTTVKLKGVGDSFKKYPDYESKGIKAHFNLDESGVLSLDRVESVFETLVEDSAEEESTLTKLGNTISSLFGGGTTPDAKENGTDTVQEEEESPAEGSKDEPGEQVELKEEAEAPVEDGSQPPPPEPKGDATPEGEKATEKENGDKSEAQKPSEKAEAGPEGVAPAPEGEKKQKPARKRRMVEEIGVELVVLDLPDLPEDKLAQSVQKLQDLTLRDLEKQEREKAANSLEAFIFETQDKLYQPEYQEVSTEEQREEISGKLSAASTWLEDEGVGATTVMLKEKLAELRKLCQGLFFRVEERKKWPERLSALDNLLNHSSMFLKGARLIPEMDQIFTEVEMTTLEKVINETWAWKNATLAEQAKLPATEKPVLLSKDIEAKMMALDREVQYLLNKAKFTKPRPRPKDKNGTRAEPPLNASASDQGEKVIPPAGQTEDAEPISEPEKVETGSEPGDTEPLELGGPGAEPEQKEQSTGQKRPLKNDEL
UniProt P48735: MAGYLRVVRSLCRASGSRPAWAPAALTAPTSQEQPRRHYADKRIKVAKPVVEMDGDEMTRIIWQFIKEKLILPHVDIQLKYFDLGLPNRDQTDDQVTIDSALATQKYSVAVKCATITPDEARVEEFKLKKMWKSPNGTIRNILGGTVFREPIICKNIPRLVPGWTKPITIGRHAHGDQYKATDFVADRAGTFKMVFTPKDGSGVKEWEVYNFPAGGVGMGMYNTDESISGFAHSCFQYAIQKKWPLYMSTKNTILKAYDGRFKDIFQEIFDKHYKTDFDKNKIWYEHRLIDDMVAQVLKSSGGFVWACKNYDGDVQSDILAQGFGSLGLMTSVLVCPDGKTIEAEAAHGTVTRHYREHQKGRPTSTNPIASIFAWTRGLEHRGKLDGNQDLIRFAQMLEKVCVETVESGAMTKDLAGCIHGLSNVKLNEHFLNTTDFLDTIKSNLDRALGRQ
UniProt Q9BT40: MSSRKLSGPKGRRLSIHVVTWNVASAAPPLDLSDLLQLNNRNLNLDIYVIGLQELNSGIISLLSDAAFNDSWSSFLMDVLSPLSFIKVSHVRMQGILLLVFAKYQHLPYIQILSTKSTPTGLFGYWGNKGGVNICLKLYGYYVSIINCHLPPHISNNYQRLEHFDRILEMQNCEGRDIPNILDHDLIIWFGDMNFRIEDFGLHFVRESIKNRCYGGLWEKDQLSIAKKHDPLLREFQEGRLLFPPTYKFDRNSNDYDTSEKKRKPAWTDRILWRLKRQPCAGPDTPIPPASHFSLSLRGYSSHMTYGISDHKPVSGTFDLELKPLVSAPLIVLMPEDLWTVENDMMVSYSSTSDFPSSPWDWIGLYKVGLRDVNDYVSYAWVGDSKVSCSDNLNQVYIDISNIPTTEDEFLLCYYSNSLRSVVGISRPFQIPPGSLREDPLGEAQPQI
UniProt Q13123, whole entry, looked up: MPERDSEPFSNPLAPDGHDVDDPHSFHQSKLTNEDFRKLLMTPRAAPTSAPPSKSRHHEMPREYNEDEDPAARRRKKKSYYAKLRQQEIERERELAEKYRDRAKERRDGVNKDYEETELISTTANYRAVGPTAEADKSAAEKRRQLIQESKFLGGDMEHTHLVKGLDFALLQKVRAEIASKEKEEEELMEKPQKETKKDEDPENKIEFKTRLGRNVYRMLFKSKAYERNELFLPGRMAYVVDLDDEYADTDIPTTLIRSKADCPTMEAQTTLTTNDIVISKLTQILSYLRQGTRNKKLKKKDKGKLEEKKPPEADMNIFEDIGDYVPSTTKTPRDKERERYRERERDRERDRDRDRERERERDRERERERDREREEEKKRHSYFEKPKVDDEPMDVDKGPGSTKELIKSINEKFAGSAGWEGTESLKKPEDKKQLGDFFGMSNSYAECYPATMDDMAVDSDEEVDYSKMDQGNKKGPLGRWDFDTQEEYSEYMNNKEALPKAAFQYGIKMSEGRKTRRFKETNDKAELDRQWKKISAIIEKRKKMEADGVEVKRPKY

Compound in this test: Cn1cncc1[C@@](N)(c1ccc(Cl)cc1)c1ccc2c(c1)c(-c1cccc(Cl)c1)cc(=O)n2C [tipifarnib]
The experiment in a line: log2 fold change, soluble protein after heating vs DMSO (PISA); higher = thermal stabilisation; K562 lysate, 10 uM; active = over 0.2 and 3.5 SD of the protein, either way, in both replicates (recomputed). Put shortly:
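The values are log-two fold changes in thermal stability compared with solvent controls and come from duplicates. They were obtained by TMTpro 16plex LC-MS/MS, with channel sums equalised, on the supernatant after 21,000xg for 90 min. That supernatant came from crude K562 extract at 1 mg/mL protein treated with 10 μM compound for 30 min, heated for 3 min across 48°C-58°C, pooled and brought to 0.5% NP-40 at 4°C.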
As for IDH3A (UniProt P50213), the log2 fold change is inactive: -0.011. The same measure for IGSF3 (UniProt O75054): inactive: 0.087. For the target ILKAP (UniProt Q9H0C8), the log2 fold change is inactive: -0.005. The value for ICAM1 (UniProt P05362) was inactive: -0.033. The same measure for IDH3B (UniProt O43837): inactive: 0.041. Regarding IGSF8 (UniProt Q969P0), the log2 fold change was inactive: 0.048. The same measure for ILVBL (UniProt A1L0T0): inactive: -0.04. The value for IDE, A0A3B3ISG5 was inactive: -0.01; that for ILF2 (UniProt Q12905) was inactive: 0.005. The same measure for HTATIP2 isoform 3 (UniProt Q9BUP3): inactive: -0.05. With IGF2BP1 (UniProt Q9NZI8), the log2 fold change is inactive: 0.01.

As for HYOU1 (UniProt J3QL06), the log2 fold change is inactive: 0.166. Take IMPA1 isoform 3 (UniProt P29218): the log2 fold change was inactive: -0.003. The value for IDH1 (UniProt O75874) was inactive: 0; that for HUWE1 (UniProt Q7Z6Z7) was inactive: -0.002; that for HSPA8 (UniProt P11142) was inactive: 0. The same measure for IL10RB (UniProt Q08334): inactive: -0.154; for IDH3G (UniProt P51553): inactive: 0.032. As for ICAM5 (UniProt Q9UMF0), the log2 fold change is inactive: -0.071.

In the case of IBA57 (UniProt Q5T440), the log2 fold change is inactive: -0.014. The same measure for IGBP1 (UniProt P78318): inactive: -0.021.

On to IFI30 (UniProt P13284), for which the log2 fold change was inactive: 0.033. As to HYPK (UniProt Q9NX55), the log2 fold change was inactive: 0.041. Consider IFITM3 (UniProt Q01628), for which the log2 fold change is inactive: -0.136. The value for IFT74 (UniProt Q96LB3) was inactive: -0.06; that for INPP4A (UniProt Q96PE3) was inactive: 0.03. The same measure for HYOU1 (UniProt Q9Y4L1): inactive: -0.018; for IDH2 (UniProt P48735): inactive: -0.013.

Consider INPP5K (UniProt Q9BT40), for which the log2 fold change was inactive: 0.054. The same measure for INTS1 (UniProt Q8N201): inactive: 0.017. The value for IK (UniProt Q13123) was inactive: -0.041. The value for ILK (UniProt Q13418) was inactive: -0.001; that for HUS1 (UniProt O60921) was inactive: -0.011.

Source of the values: the supplement of paper PMC10849652.
